Source: article PMC4821889
Results are given in words; binding and its absence hold for the method and conditions named. In cells and extracts the contact can be indirect. Some results given as binding are weak or reduced against the parent protein; the word gives no strength. For part of these data: Tags and fused reporters may be left off the sequences shown. Each block holds one binder with its values, some of them ahead of it.

Tests used:
Myc-Lats2 [1] = molecular target: T1, Myc-Lats2 (UniProt Q9NRM7); assay: co-IP; exogenously expressed tagged proteins (HEK293T stated for Fig. 4d, 4g, 5e); lysis buffer 150 mM NaCl, 20 mM Tris pH 7.4, 1% NP-40; protein A/G-agarose; for Lats2-Siah2^RM also with increasing Zyxin, Zyxin knock-down or Cytochalasin D
T1 sequence: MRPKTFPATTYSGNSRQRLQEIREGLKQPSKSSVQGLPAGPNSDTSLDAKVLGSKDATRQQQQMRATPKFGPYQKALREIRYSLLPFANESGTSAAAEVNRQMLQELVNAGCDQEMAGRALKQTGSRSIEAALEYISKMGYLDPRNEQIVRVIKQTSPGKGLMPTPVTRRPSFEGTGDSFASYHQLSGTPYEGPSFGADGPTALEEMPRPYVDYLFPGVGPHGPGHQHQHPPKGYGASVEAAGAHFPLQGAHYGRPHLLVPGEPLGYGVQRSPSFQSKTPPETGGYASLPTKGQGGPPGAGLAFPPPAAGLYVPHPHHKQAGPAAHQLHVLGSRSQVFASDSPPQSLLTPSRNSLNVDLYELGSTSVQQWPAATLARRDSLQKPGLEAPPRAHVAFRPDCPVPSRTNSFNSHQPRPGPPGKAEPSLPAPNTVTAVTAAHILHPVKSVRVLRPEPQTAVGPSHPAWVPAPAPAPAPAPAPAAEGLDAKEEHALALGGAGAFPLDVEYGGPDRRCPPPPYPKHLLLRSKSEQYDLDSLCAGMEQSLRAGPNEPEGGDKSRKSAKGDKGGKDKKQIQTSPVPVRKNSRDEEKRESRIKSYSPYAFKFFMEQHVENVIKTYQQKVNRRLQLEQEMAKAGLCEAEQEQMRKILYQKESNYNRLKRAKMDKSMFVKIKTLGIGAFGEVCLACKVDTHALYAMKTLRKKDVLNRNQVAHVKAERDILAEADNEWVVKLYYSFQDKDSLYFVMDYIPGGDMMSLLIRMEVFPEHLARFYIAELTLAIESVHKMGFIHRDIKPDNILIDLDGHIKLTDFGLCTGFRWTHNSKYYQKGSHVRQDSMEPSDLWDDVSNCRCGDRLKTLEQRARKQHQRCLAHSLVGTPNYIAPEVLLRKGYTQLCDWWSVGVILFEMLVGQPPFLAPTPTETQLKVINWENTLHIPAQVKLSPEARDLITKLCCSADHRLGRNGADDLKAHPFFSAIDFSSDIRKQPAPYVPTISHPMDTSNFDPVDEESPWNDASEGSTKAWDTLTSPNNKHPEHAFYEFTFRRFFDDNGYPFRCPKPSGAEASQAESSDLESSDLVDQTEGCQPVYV

GST-Siah2 = molecular target: T2, GST-Siah2 (UniProt O43255); assay: pull-down; GST-Siah2 on Glutathione Sepharose 4B, incubated with cell extracts at 4 °C overnight; washed five times with lysis buffer; western blotting; only the target purified
T2 sequence: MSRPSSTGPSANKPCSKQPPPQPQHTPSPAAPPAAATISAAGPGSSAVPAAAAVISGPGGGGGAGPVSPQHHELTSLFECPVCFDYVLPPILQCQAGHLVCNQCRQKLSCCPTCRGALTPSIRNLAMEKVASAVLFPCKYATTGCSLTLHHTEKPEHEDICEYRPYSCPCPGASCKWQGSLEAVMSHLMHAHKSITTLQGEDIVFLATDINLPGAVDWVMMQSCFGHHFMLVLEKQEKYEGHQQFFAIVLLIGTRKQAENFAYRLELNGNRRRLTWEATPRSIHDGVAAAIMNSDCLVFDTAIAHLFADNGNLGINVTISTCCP

[2] = molecular target: T3, Lats2 (endogenous) (human (endogenous in MDA-MB-231)) (UniProt Q9NRM7); assay: co-IP; endogenous proteins in MDA-MB-231 lysates; lysis buffer 150 mM NaCl, 20 mM Tris pH 7.4, 1% NP-40; antibody overnight at 4 °C, protein A/G-agarose; for Lats2-Siah2 cells treated with 5 μM MG132 and 5 ng/ml TGF-β for 12 h
T3 sequence: T1 sequence

Myc-Lats2 [3] = molecular target: T1, Myc-Lats2; assay: co-IP; double co-IP from HEK293T overexpressing Myc-Lats2, Flag-Siah2^RM and Zyxin-V5: anti-Flag IP, elution with Flag peptide, second IP with anti-Myc

binding (Myc-Lats2 [1]): binds | binding (GST-Siah2): binds
B1: Zyxin (379-572) (domain or fragment, UniProt Q15942 379-572)
chain: AVNELCGRCHQPLARAQPAVRALGQLFHIACFTCHQCAQQLQGQQFYSLEGAPYCEGCYTDTLEKCNTCGEPITDRMLRATGKAYHPHCFTCVVCARPLEGTSFIVDQANRPHCVPDYHKQYAPRCSVCSEPIMPEPGRDETVRVVALDKNFHMKCYKCEDCGKPLSIEADDNGCFPLDGHVLCRKCHTARAQT

binding [2]: binds
B2: Siah2 (endogenous) (enzyme, UniProt O43255 1-324)
chain: T2 sequence

binding [2]: binds
B3: Zyxin (endogenous) (protein, UniProt Q15942 1-572)
chain: MAAPRPSPAISVSVSAPAFYAPQKKFGPVVAPKPKVNPFRPGDSEPPPAPGAQRAQMGRVGEIPPPPPEDFPLPPPPLAGDGDDAEGALGGAFPPPPPPIEESFPPAPLEEEIFPSPPPPPEEEGGPEAPIPPPPQPREKVSSIDLEIDSLSSLLDDMTKNDPFKARVSSGYVPPPVATPFSSKSSTKPAAGGTAPLPPWKSPSSSQPLPQVPAPAQSQTQFHVQPQPQPKPQVQLHVQSQTQPVSLANTQPRGPPASSPAPAPKFSPVTPKFTPVASKFSPGAPGGSGSQPNQKLGHPEALSAGTGSPQPPSFTYAQQREKPRVQEKQHPVPPPAQNQNQVRSPGAPGPLTLKEVEELEQLTQQLMQDMEHPQRQNVAVNELCGRCHQPLARAQPAVRALGQLFHIACFTCHQCAQQLQGQQFYSLEGAPYCEGCYTDTLEKCNTCGEPITDRMLRATGKAYHPHCFTCVVCARPLEGTSFIVDQANRPHCVPDYHKQYAPRCSVCSEPIMPEPGRDETVRVVALDKNFHMKCYKCEDCGKPLSIEADDNGCFPLDGHVLCRKCHTARAQT

binding (Myc-Lats2 [1]): binds | binding (Myc-Lats2 [3]): binds
B4: Zyxin-V5 (protein, UniProt Q15942 1-572)
chain: B3 chain
